In patent US11925645B2, “Enhanced caffeinated beverage composition” (Ortho-Nutra, LLC, priority 2013, dated 2024):
The name of at least one read-out is uncertain.

Experiment: Theacrine-caffeine interaction study: single oral dose plasma pharmacokinetics (LC-MS/MS, noncompartmental)
Assay type: in vivo, human
Conditions: Condition 2: Theacrine 125 mg single oral dose, mean ± SD
From the text: Theacrine pharmacokinetics in humans has not been systematically characterized. Therefore, one purpose of this study, among others, was to determine theacrine pharmacokinetics and dose-linearity following oral administration in humans.
Eight healthy nonsmokers, including 4 men and 4 women, were recruited for the experiment.
Study Design and Procedures. […] Theacrine, administered as iTeaCrine.®, was provided by Compound Solutions (Carlsbad, Calif). […] Treatment sequence was randomized using a 4×4 Latin square. There was an approximate 1-week washout period between treatments for all subjects.
Test Visit Procedures. […] A catheter was inserted into the forearm vein for blood sampling. […] In addition, respiratory rate was counted in one minute and body temperature was measured using an ear scanning thermometer (dual readings taken at each time).
All subjects were instructed to consume their usual diet throughout the study period, with the exception of the actual days of testing. During the two days prior to each test day, subjects recorded all food and drink consumed and attempted to mimic this intake for the two-day period prior to subsequent visits. Diet records were analyzed using nutrient analysis software (Food Processor SQL, version 9.9; ESHA Research, Salem, Oreg.). […]
Pharmacokinetic Study. […] The oral clearance (CL/F) was calculated by dividing the oral dose by AUC0-∞. […]

## Cn1c(=O)c2c(n(C)c1=O)n(C)c(=O)n2C [Theacrine, 1,3,7,9-tetramethylpurine-2,6,8-trione]
  Vd/F: 51.0 ± 8.5 L
